Measurements from PubChem BioAssay AID588499 (NMMLSC, 2011).
About 610 (0.17%) of roughly 360,000 compounds were called active. The shares of active, inactive and inconclusive entries below differ from those in the screen. No stated cut-off is given here; in the data, active means inhibition above about 30%; inconclusive means no clear call, values can overlap the other calls; inactive means below that.

Test system: Botulinum neurotoxin type A light chain protease (Clostridium botulinum A str. ATCC 3502)
Experiment: blockers of BoNT/A LC substrate cleavage – biochemical, flow cytometry, MLPCN library, primary screen (AID 588499); further: plate controls were buffer without enzyme for full effect and enzyme alone for no effect
Conditions: multiplex microsphere protease substrate cleavage, at 10 µM, active compounds read high

| SMILES | inhibition |
| --- | --- |
| Nc1c(-c2cccs2)cnn1-c1nc(-c2ccc(Cl)cc2Cl)cs1 | inconclusive: -2.3% |
| CC1(C)CC(=O)c2sc(NS(=O)(=O)Cc3ccccc3)nc2C1 | inconclusive: 0.6% |
| COc1ccc(-c2nc(-c3ccccc3)c(-c3cccs3)[nH]2)cc1OC | inactive: -2.3% |
| CCOc1ccc(C2C=C(c3ccc(F)cc3)Nc3ncnn32)cc1 (centres undefined) | inactive: 0.9% |
| Cc1nnc(Nc2ccc(Cl)cc2)s1 | inconclusive: -5.2% |
| CN(Cc1ccco1)C(=O)c1cc2c(s1)-c1ccc(Cl)cc1S(=O)(=O)C2 | inactive: -0.9% |
| Cc1ccc(NC(=O)N(C2=NCC(C)S2)c2ccccc2)cc1 (centres undefined) | inconclusive: 3.6% |
| CC(Oc1ccc(Br)cc1)C(=O)Nc1ccc(N2CCOCC2)cc1N1CCOCC1 (centres undefined) | inactive: 5.4% |
| CC1C2=C(CC(C)(C)CC2=O)NC2=C1C(=O)CC(C)(C)C2 | inactive: -0.8% |
| COC(=O)C1C(=O)/C(=C(/C)N2CCCC2)C(=O)CC1(C)C (centres undefined) | inconclusive: -0.7% |
| CCOC(=O)N1CCN(C(=O)c2ccc(N3C(=O)CCC3=O)cc2)CC1 | inconclusive: -0.5% |
| CCOC(=O)C1=C(CC)OC(N)=C(C#N)C1c1cc(OC)ccc1OC (centres undefined) | inconclusive: -4.9% |
| N/C(=N\O)c1ccc(Oc2ccccc2Cl)c([N+](=O)[O-])c1 | inconclusive: 2% |
| COc1ccc(S(=O)(=O)N2CCC3(CC2)OCCN3S(=O)(=O)c2cccs2)cc1 | inconclusive: -0.3% |
| CC(C)(C)c1cc(NC(=O)NN2CCOCC2)nn1-c1c(Cl)cc(Cl)cc1Cl | inconclusive: -27.2% |
| O=C(NCCCN1CCCC1=O)c1c(O)nc2sccn2c1=O | inconclusive: 4.9% |
| O=C(CCn1nnc2ccccc21)Nc1nnc(Cc2ccc(F)cc2)s1 | inconclusive: -0.1% |
| Cc1ccc(SCC(=O)NNC(=O)C2CCCCC2)cc1 | inconclusive: -0.8% |
| COc1ccccc1N1CCN(S(=O)(=O)c2c(C)ccc3nsnc23)CC1 | inconclusive: 1.9% |
| NC(=O)Cn1c(=O)n(CCc2ccccc2)c(=O)c2c3c(sc21)CCCC3 | inactive: -1.1% |

Filtered by structure, the entries above with fluorine.

| SMILES | inhibition |
| --- | --- |
| CCOc1ccc(C2C=C(c3ccc(F)cc3)Nc3ncnn32)cc1 (centres undefined) | inactive: 0.9% |
| O=C(CCn1nnc2ccccc21)Nc1nnc(Cc2ccc(F)cc2)s1 | inconclusive: -0.1% |

The results go on.

| SMILES | inhibition |
| --- | --- |
| COc1cc(C)ccc1OCc1cc(C(=O)N(Cc2nccn2C)C(C)C)no1 | inactive: -0.3% |
| O=c1cc(C(F)(F)F)nc(-c2ccccc2)[nH]1 | inconclusive: 3.4% |
| Cc1c(Nc2nc3ccccc3nc2N2CCN(c3ccccc3)CC2)c(=O)n(-c2ccccc2)n1C | inactive: 0.3% |
| Cc1ccc(NC(=O)CSCC#N)cc1 | inconclusive: -11.6% |
| COc1ccc(Cl)cc1NC(=O)CN1C(=O)NC(Cc2c[nH]c3ccccc23)C1=O (centres undefined) | inactive: 0.7% |
| CCOc1ccc(NC(=O)C(C)SC(N)=O)cc1 (centres undefined) | inactive: -0.5% |
| Cc1ccsc1-c1ccnc(-n2cccc2)n1 | inactive: -1.1% |
| c1ccc(CNc2ccc(CNc3ncn[nH]3)cc2)cc1 | inconclusive: -2.4% |
| Cc1nc2c(C(=O)N3CCCC3)cnn2c(C)c1Cc1c(F)cccc1Cl | inactive: -1.3% |
| CC(C)CN1C(=O)NC(NC(=O)c2cccs2)(C(F)(F)F)C1=O (centres undefined) | inconclusive: 0.8% |
| CN1C(=O)C2(c3ccccc31)c1c(oc3ccccc3c1=O)C(=O)N2CCO (centres undefined) | inconclusive: -4.4% |
| O=C(O)COCC(=O)N1CCN(C(c2ccccc2)c2ccccc2)CC1 | inconclusive: 18.7% |
| CC(C)(C)C(=O)OCc1cn(-c2ccc(Cl)cc2)nn1 | inconclusive: 1.4% |
| Nc1nnnn1CC(=O)OCc1cccc(Br)c1 | inconclusive: -0.1% |
| CCCNC(=O)c1cc(S(=O)(=O)N2CCC3(CC2)OCCO3)ccc1F | inactive: 0.3% |
| Cc1cc(C)c(S(=O)(=O)ON2C(=O)c3ccccc3C2=O)cc1C | inconclusive: -0.3% |
| Cc1ccc2nc(C(F)(F)F)c(C#N)c(N)c2c1 | inconclusive: 1.4% |
| Cc1ccc(-c2nc(CSCC(=O)NCc3cccnc3)c(C)o2)cc1 | inconclusive: 3.6% |
| CCn1c(=O)c(C(=O)CN2CCCc3ccccc32)c(N)n(Cc2ccccc2)c1=O | inconclusive: 16.5% |
| COc1ccc(N(CC(O)CN2CCCCC2)S(=O)(=O)c2ccc(C)cc2)cc1 (centres undefined) | inconclusive: 3.1% |

Of the compounds above, 3 have a CF3 group:

| SMILES | inhibition |
| --- | --- |
| O=c1cc(C(F)(F)F)nc(-c2ccccc2)[nH]1 | inconclusive: 3.4% |
| CC(C)CN1C(=O)NC(NC(=O)c2cccs2)(C(F)(F)F)C1=O (centres undefined) | inconclusive: 0.8% |
| Cc1ccc2nc(C(F)(F)F)c(C#N)c(N)c2c1 | inconclusive: 1.4% |

Later entries:

| SMILES | inhibition |
| --- | --- |
| COc1ccccc1NC(=O)CSc1nccc(=O)[nH]1 | inconclusive: -4.8% |
| CCN1C(=O)c2cccc3c(NS(=O)(=O)c4ccc(NC(C)=O)cc4)ccc1c23 | inconclusive: 1.7% |
| Cc1c(C(=O)Oc2ccc(Cl)cc2)n(C)oc1=O | inconclusive: 10.9% |
| CCCN1C(=O)c2ccc(C(=O)NCc3ccco3)cc2C1=O | inconclusive: 1.8% |
| COc1ccc(CCNc2nc(=O)[nH]nc2C)cc1OC | inactive: -0.7% |
| Cc1oc(-c2ccccc2F)nc1CN1CCC(C(=O)NCc2ccco2)CC1 | inconclusive: 2.3% |
| CC(NC(=O)Cc1ccc([N+](=O)[O-])cc1)c1ccc2c(c1)OCO2 (centres undefined) | inactive: 0.1% |
| O=C(CNS(=O)(=O)c1ccc(Br)s1)NCc1ccc2c(c1)OCO2 | inconclusive: -4.3% |
| CC(=O)c1c(C)[nH]c(C(=O)CN2C(=O)NC(C)(c3ccc4c(c3)OCO4)C2=O)c1C (centres undefined) | inconclusive: 18.5% |
| COc1ccc(C=C2C=C(C(C)(C)C)C(=O)C(C(C)(C)C)=C2)cc1OC | active: 85.5% |
| COc1ccccc1OCC(=O)Nc1ccc(Cl)cc1 | inconclusive: -2% |
| COc1nn(CC(=O)N2N=C(C)CC2(O)C(F)(F)F)cc1[N+](=O)[O-] (centres undefined) | inactive: -2.5% |
| CCCCN(Cc1ccccc1)C1CCN(Cc2ccccc2)CC1 | inconclusive: 5.9% |
| Cc1[nH]nc2c1C(c1ccc(N(C)C)cc1)C1=C(CC(C)(C)CC1=O)N2 (centres undefined) | inactive: -0.1% |
| CCCN(Cc1ccco1)S(=O)(=O)c1ccc(OC)c(OC)c1 | inconclusive: -28.7% |
| COc1cc(-c2cn[nH]c2N)cc(OC)c1OC | inconclusive: -3% |
| CCn1c2c(c(=N)c3ccccc31)CCC2 | inconclusive: 0.2% |
| O=C(NNC(=O)c1cccs1)c1ccco1 | inactive: -1.2% |
| Cc1nc2c3cc(Cl)ccc3n(CCN3CCOCC3)c2s1 | inconclusive: 7.6% |
